Measurements from the supplement of paper PMC10849652.
The list shows a part of the results.

By UniProt entry, the sequences of proteins in these tests, tags left out. Where a name states a change or a piece, a line headed by the entry shows the natural chain unless it says otherwise.
UniProt Q9Y508: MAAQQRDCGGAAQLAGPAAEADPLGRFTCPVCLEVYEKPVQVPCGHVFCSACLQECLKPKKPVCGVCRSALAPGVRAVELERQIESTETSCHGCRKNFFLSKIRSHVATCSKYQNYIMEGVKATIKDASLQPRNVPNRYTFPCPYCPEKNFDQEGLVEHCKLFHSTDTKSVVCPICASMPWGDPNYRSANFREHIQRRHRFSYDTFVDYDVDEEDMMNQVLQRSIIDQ
UniProt Q5VTB9: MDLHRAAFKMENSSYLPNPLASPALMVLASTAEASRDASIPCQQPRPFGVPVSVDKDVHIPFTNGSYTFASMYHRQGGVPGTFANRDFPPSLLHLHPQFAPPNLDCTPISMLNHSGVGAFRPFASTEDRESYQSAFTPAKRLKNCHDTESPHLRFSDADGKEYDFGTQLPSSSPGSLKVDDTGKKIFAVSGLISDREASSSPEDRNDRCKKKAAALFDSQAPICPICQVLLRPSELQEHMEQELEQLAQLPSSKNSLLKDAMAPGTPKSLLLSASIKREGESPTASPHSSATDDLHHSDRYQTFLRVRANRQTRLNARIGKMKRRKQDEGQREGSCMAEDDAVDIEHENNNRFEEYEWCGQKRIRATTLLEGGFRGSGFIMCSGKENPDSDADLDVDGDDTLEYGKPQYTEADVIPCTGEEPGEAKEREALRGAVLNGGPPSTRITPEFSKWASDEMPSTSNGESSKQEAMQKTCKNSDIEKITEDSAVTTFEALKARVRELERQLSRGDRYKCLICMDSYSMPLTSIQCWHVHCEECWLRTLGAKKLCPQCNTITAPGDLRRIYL
UniProt Q9H6T3, whole entry, looked up: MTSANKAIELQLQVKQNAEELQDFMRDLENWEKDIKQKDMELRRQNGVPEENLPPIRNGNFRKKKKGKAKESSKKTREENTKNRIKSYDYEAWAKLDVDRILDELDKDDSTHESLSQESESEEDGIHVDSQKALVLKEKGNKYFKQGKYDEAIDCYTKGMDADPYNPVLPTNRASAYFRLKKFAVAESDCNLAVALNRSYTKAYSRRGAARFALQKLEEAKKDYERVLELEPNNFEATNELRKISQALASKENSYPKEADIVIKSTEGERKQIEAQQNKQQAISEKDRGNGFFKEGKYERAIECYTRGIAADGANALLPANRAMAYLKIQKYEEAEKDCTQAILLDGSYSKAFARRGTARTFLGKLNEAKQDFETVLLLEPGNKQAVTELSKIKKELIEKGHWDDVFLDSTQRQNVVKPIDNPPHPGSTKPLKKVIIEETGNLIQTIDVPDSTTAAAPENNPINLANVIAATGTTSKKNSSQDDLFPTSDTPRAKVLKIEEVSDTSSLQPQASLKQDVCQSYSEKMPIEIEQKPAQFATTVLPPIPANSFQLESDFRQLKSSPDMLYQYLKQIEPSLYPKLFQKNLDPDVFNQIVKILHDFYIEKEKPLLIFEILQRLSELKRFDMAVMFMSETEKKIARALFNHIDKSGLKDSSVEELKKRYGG
UniProt Q9H7B2: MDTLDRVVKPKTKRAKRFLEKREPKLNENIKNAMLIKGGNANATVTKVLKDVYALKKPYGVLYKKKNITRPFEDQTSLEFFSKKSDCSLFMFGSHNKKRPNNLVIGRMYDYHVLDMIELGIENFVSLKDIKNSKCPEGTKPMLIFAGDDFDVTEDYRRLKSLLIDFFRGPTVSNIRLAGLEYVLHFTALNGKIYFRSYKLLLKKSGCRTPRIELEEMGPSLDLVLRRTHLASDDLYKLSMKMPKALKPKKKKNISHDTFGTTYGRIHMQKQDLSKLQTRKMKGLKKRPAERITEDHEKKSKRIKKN
UniProt Q9GZN7, whole entry, looked up: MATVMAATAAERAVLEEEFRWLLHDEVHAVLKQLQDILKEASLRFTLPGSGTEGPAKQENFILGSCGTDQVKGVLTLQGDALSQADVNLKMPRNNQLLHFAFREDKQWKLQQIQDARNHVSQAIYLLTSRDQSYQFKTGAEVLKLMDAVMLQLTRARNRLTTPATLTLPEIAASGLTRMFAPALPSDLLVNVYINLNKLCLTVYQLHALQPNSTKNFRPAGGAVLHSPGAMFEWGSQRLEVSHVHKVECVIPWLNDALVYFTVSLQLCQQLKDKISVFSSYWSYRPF
UniProt Q9H920: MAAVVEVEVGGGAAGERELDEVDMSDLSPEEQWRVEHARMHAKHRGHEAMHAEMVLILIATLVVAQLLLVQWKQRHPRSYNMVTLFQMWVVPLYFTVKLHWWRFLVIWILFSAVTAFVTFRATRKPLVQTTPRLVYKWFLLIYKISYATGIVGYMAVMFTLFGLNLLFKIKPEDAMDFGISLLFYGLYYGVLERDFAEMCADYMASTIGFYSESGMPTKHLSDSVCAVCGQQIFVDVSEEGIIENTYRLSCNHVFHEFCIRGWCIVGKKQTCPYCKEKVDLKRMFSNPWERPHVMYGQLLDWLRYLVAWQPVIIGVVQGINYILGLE
UniProt Q9NTX7: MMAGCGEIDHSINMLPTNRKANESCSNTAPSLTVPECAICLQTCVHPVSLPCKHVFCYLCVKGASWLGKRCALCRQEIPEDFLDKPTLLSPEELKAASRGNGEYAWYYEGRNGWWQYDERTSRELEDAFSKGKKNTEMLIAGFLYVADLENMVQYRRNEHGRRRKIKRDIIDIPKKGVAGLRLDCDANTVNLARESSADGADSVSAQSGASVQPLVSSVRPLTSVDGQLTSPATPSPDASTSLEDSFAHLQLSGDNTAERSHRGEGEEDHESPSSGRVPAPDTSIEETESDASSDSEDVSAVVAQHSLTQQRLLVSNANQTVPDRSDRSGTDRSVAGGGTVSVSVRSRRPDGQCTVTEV
UniProt Q8NC42: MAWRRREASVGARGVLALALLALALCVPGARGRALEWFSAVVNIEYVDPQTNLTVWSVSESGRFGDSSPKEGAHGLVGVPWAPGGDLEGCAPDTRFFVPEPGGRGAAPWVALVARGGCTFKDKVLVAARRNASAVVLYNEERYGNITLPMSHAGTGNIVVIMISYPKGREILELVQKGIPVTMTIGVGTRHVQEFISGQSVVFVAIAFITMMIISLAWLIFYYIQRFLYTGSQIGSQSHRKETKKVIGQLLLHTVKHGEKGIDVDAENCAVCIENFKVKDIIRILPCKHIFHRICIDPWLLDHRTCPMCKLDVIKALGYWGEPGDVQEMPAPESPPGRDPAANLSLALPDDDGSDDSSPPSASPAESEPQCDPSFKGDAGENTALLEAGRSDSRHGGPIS
UniProt Q9H9Y2: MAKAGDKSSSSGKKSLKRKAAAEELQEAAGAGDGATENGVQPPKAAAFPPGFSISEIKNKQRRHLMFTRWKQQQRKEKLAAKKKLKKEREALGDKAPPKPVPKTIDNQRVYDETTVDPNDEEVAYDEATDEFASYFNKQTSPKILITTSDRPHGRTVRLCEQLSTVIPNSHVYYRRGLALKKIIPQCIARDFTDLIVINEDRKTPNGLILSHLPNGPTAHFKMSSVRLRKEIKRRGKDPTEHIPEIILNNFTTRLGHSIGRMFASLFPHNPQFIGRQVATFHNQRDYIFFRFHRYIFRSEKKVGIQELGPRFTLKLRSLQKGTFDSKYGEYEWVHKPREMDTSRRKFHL
UniProt Q5UIP0: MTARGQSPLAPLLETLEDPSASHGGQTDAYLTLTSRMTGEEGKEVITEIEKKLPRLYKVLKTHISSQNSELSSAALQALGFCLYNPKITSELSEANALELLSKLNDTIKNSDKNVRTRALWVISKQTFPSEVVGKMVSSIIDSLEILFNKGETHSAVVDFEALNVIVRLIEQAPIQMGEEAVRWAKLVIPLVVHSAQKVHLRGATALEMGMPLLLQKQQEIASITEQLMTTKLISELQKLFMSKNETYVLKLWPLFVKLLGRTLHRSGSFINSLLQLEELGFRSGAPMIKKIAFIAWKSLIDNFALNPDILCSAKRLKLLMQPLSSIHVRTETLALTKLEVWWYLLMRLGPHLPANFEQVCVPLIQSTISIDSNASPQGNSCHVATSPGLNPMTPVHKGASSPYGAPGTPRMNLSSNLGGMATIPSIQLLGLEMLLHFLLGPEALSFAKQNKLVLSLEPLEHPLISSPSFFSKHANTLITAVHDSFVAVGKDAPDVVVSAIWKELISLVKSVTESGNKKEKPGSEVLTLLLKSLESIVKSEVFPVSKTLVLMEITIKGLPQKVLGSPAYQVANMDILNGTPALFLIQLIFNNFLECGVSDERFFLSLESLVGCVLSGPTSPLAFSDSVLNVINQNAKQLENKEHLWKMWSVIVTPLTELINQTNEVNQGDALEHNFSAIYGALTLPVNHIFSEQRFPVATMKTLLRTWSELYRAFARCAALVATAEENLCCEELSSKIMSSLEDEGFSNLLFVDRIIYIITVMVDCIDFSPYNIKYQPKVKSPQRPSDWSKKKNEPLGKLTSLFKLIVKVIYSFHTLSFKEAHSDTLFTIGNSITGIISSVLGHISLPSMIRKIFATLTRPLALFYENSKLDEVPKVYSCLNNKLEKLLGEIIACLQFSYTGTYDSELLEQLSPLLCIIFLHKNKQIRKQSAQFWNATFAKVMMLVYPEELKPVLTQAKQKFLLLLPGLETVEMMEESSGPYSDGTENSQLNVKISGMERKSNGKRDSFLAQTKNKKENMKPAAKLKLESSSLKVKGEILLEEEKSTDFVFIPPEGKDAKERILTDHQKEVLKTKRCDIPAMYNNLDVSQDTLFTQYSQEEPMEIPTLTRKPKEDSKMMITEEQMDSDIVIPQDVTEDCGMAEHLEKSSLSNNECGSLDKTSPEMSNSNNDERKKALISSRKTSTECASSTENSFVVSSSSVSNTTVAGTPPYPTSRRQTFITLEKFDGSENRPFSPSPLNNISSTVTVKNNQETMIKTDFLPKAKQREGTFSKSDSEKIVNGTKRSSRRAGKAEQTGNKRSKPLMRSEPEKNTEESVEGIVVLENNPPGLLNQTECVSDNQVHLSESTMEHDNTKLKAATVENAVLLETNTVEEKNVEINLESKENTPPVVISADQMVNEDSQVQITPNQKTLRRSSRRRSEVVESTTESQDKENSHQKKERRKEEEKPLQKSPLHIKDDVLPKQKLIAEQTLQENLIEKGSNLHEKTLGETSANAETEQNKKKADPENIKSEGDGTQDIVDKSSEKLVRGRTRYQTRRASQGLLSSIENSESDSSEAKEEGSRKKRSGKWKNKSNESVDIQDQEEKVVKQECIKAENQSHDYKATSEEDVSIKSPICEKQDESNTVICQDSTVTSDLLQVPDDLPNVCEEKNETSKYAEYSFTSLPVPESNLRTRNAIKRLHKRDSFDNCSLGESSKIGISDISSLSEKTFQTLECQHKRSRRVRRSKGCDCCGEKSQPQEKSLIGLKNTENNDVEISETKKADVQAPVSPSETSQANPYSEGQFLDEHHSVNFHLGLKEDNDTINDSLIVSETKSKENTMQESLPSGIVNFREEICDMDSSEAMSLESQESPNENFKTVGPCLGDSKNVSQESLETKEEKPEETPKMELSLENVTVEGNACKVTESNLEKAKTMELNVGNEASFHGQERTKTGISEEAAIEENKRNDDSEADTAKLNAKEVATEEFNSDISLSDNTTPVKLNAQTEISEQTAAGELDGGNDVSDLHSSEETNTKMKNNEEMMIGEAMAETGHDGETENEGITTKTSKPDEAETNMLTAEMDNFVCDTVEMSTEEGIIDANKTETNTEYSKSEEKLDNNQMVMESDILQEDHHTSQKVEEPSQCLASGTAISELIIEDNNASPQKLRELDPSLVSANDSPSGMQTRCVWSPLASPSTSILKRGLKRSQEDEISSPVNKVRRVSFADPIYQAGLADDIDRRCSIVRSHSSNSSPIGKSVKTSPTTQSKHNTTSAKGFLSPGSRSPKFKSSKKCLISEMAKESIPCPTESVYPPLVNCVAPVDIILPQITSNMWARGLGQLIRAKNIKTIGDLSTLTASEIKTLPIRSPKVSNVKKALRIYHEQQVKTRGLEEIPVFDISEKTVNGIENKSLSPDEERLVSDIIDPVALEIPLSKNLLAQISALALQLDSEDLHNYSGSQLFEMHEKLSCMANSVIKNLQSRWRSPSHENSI
UniProt Q15287: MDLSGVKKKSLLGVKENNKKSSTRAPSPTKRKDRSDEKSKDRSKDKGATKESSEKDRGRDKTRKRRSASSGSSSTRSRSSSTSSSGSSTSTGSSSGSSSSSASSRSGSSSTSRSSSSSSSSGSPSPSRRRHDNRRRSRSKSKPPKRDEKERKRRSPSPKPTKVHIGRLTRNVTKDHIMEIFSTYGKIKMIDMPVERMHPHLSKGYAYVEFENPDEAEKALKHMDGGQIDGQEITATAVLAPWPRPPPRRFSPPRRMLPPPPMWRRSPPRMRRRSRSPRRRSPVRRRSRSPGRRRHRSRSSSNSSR
UniProt Q969X0: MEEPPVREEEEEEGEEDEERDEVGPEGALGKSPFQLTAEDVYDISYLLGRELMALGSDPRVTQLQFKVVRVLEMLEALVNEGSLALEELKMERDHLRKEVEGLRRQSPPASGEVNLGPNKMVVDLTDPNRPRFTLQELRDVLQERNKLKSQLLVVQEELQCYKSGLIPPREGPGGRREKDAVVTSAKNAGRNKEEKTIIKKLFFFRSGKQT

What was measured:
Assay in all cases: log2 fold change, soluble protein after heating vs DMSO (PISA); higher = thermal stabilisation; K562 lysate, 10 uM; active = over 0.2 and 3.5 SD of the protein, either way, in both replicates (recomputed)
lapatinib = compound: CS(=O)(=O)CCNCc1ccc(-c2ccc3ncnc(Nc4ccc(OCc5cccc(F)c5)c(Cl)c4)c3c2)o1 [lapatinib]
In short: (§1)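 Thermal stability, expressed as log-two fold change relative to solvent controls, is given from duplicates. Crude K562 extract in PBS pH 7.4 with 1 mM MgCl2, at 1 mg/mL protein, was treated with 10 μM compound for 30 min and heated in aliquots for 3 min across 48°C-58°C. After pooling, adjustment to 0.5% NP-40 at 4°C and centrifugation at 21,000xg for 90 min, supernatant protein was measured by TMTpro 16plex LC-MS/MS with channel sums equalised.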

pictilisib = compound: CS(=O)(=O)N1CCN(Cc2cc3nc(-c4cccc5[nH]ncc45)nc(N4CCOCC4)c3s2)CC1 [pictilisib]
In short: as §1

crizotinib = compound: C[C@@H](Oc1cc(-c2cnn(C3CCNCC3)c2)cnc1N)c1c(Cl)ccc(F)c1Cl [crizotinib]
In short: as §1

[1] = compound: C[C@H](C1=CC=C(C=C1)C(=O)NC2=C3C=CNC3=NC=C2)N
In short: as §1

duvelisib = compound: C[C@H](Nc1ncnc2nc[nH]c12)c1cc2cccc(Cl)c2c(=O)n1-c1ccccc1 [duvelisib]
In short: as §1

gandotinib = compound: Cc1cc(Nc2cc(CN3CCOCC3)c3nc(C)c(Cc4ccc(Cl)cc4F)n3n2)n[nH]1 [gandotinib]
In short: as §1

tozasertib = compound: Cc1cc(Nc2cc(N3CCN(C)CC3)nc(Sc3ccc(NC(=O)C4CC4)cc3)n2)n[nH]1 [tozasertib]
In short: as §1

doramapimod = compound: Cc1ccc(-n2nc(C(C)(C)C)cc2NC(=O)Nc2ccc(OCCN3CCOCC3)c3ccccc23)cc1 [doramapimod]
In short: as §1

bafetinib = compound: Cc1ccc(NC(=O)c2ccc(CN3CC[C@H](N(C)C)C3)c(C(F)(F)F)c2)cc1Nc1nccc(-c2cncnc2)n1 [bafetinib]
In short: as §1

[2] = compound: Cc1cccc(CC(=O)N2CCc3c2ccc(-c2cn(C)c4ncnc(N)c24)c3F)n1
In short: as §1

nilotinib = compound: Cc1cn(-c2cc(NC(=O)c3ccc(C)c(Nc4nccc(-c5cccnc5)n4)c3)cc(C(F)(F)F)c2)cn1 [nilotinib]
In short: as §1

[3] = compound: Cc1nc(Nc2n[nH]c3c2CN(C(=O)N[C@H](CN(C)C)c2ccccc2)C3(C)C)c2sccc2n1
In short: as §1

dasatinib = compound: Cc1nc(Nc2ncc(C(=O)Nc3c(C)cccc3Cl)s2)cc(N2CCN(CCO)CC2)n1 [dasatinib]
In short: as §1

[4] = compound: Cc1ncc(-c2ccnc(Nc3ccc(S(C)(=O)=O)cc3)n2)n1C(C)C
In short: as §1

[5] = compound: Cn1cc(-c2ccc3c(c2)CCN3C(=O)Cc2cccc(C(F)(F)F)c2)c2c(N)ncnc21
In short: as §1

quisinostat = compound: Cn1cc(CNCC2CCN(c3ncc(C(=O)NO)cn3)CC2)c2ccccc21 [quisinostat]
In short: as §1

tipifarnib = compound: Cn1cncc1[C@@](N)(c1ccc(Cl)cc1)c1ccc2c(c1)c(-c1cccc(Cl)c1)cc(=O)n2C [tipifarnib]
In short: as §1

[6] = compound: NC(=O)Nc1cc(-c2cccc(F)c2)sc1C(=O)N[C@H]1CCCNC1
In short: as §1

[7] = compound: NC(=O)c1cnc(N[C@@H]2CCCC[C@@H]2N)nc1Nc1cccc(-n2nccn2)c1
In short: as §1

[8] = compound: NC1(c2ccc(-c3nc4ccn5c(=O)[nH]nc5c4cc3-c3ccccc3)cc2)CCC1
In short: as §1

Row | Target | log2 fold change (lapatinib) | log2 fold change (pictilisib) | log2 fold change (crizotinib) | log2 fold change [1] | log2 fold change (duvelisib) | log2 fold change (gandotinib) | log2 fold change (tozasertib) | log2 fold change (doramapimod) | log2 fold change (bafetinib) | log2 fold change [2] | log2 fold change (nilotinib) | log2 fold change [3] | log2 fold change (dasatinib) | log2 fold change [4] | log2 fold change [5] | log2 fold change (quisinostat) | log2 fold change (tipifarnib) | log2 fold change [6] | log2 fold change [7] | log2 fold change [8]
1 | RIDA (UniProt P52758) | inactive: 0.073 | inactive: -0.029 | inactive: 0.06 | inactive: 0.028 | inactive: 0.017 | inactive: 0 | inactive: -0.008 | inactive: -0.034 | inactive: 0.087 | inactive: -0.029 | inactive: 0.03 | inactive: 0.029 | inactive: 0.025 | inactive: 0.03 | inactive: 0.018 | inactive: 0.093 | inactive: 0.026 | inactive: -0.028 | inactive: 0.036 | inactive: 0.012
2 | RNF114 (UniProt Q9Y508) | inactive: 0.023 | inactive: 0.007 | inactive: 0.009 | inactive: -0.025 | inactive: 0.021 | inactive: 0.011 | inactive: -0.022 | inactive: -0.002 | inactive: 0.018 | inactive: -0.003 | inactive: 0.022 | inactive: 0.022 | inactive: -0.048 | inactive: 0.021 | inactive: -0.095 | inactive: 0.051 | inactive: 0.005 | inactive: -0.035 | inactive: -0.037 | inactive: -0.047
3 | RPL35A (UniProt P18077) | inactive: 0.016 | inactive: 0.05 | inactive: -0.004 | inactive: -0.098 | inactive: 0.027 | inactive: 0.051 | inactive: 0.028 | inactive: -0.001 | inactive: 0.052 | inactive: 0.067 | inactive: -0.01 | inactive: 0.003 | inactive: 0.045 | inactive: -0.05 | inactive: 0.041 | inactive: 0.062 | inactive: -0.005 | inactive: -0.026 | inactive: -0.02 | inactive: -0.02
4 | RNF167 (UniProt Q9H6Y7) | inactive: -0.04 | inactive: -0.07 | inactive: 0.09 | inactive: -0.04 | inactive: -0.045 | inactive: 0.016 |  | inactive: -0.175 | inactive: 0.073 | inactive: 0.006 |  |  | inactive: -0.005 |  | inactive: 0.047 | inactive: 0 |  | inactive: 0.02 | inactive: -0.009 | 
5 | RNF220 (UniProt Q5VTB9) | inactive: 0.012 | inactive: -0.044 | inactive: -0.019 | inactive: -0.093 | inactive: 0.015 | inactive: -0.042 | inactive: -0.009 | inactive: -0.018 | inactive: -0.007 | inactive: 0.107 | inactive: -0.084 | inactive: 0.048 | inactive: -0.014 | inactive: -0.079 | inactive: 0 | inactive: -0.049 | inactive: 0.057 | inactive: 0.015 | inactive: 0.04 | inactive: 0.05
6 | RPAP3 (UniProt Q9H6T3) | inactive: -0.01 | inactive: 0.005 | inactive: -0.025 | inactive: 0.004 | inactive: 0.016 | inactive: -0.008 | inactive: -0.009 | inactive: 0.014 | inactive: -0.033 | inactive: 0.007 | inactive: -0.011 | inactive: 0.009 | inactive: -0.023 | inactive: 0.014 | inactive: 0.009 | inactive: -0.005 | inactive: 0 | inactive: -0.004 | inactive: 0.007 | inactive: 0.019
7 | RPF2 (UniProt Q9H7B2) | inactive: 0.037 | inactive: -0.05 | inactive: -0.094 | inactive: 0.202 | inactive: -0.009 | inactive: -0.064 | inactive: 0.066 | inactive: -0.119 | inactive: -0.042 | inactive: 0 | inactive: 0.05 | inactive: -0.095 | inactive: 0.01 | inactive: -0.007 | inactive: 0.001 | inactive: 0.042 | inactive: 0.012 | inactive: 0.045 | inactive: -0.017 | inactive: -0.064
8 | ROGDI (UniProt Q9GZN7) | inactive: 0.16 | inactive: -0.175 | inactive: -0.144 | inactive: 0.257 | inactive: -0.022 | inactive: -0.178 |  | inactive: -0.038 | inactive: -0.115 | inactive: 0.119 | inactive: -0.032 | inactive: 0.044 | inactive: -0.187 | inactive: -0.017 | inactive: 0.176 | inactive: 0.114 | inactive: -0.102 | inactive: 0.027 | inactive: -0.151 | inactive: -0.145
9 | RNF121 (UniProt Q9H920) | inactive: -0.033 | inactive: -0.092 | inactive: -0.069 | inactive: -0.137 | inactive: -0.013 | inactive: 0.124 |  | inactive: 0.03 | inactive: -0.014 | inactive: 0.014 | inactive: -0.009 | inactive: -0.055 | inactive: 0 | inactive: -0.078 | inactive: -0.086 | inactive: -0.049 | inactive: 0.13 | inactive: 0.016 | inactive: 0.12 | inactive: 0.028
10 | RPL17 isoform 3 (UniProt P18621) | inactive: 0.027 | inactive: 0.049 | inactive: 0.006 | inactive: 0.072 | inactive: -0.004 | inactive: -0.052 | inactive: -0.029 | inactive: -0.053 | inactive: 0.081 | inactive: -0.065 | inactive: 0.053 | inactive: 0 | inactive: 0.011 | inactive: -0.035 | inactive: -0.019 | inactive: 0.032 | inactive: 0.01 | inactive: 0 | inactive: 0 | inactive: 0.009
11 | RNF146 (UniProt Q9NTX7) | inactive: 0.036 | inactive: -0.054 | inactive: -0.024 | inactive: -0.023 | inactive: 0.023 | inactive: 0.01 | inactive: 0.029 | inactive: 0.025 | inactive: 0.044 | inactive: -0.011 | inactive: -0.016 | inactive: 0.023 | inactive: 0.07 | inactive: 0.036 | inactive: -0.014 | inactive: 0.005 | inactive: 0.026 | inactive: -0.013 | inactive: -0.094 | inactive: 0.068
12 | RNF149 (UniProt Q8NC42) | inactive: 0.073 | inactive: -0.025 | inactive: -0.006 | inactive: -0.039 | inactive: -0.025 | inactive: -0.026 |  | inactive: -0.099 | inactive: -0.105 | inactive: -0.013 | inactive: 0.083 | inactive: 0.129 | inactive: -0.019 | inactive: 0.099 | inactive: 0.003 | inactive: -0.019 | inactive: 0.087 | inactive: 0.038 | inactive: 0.156 | inactive: -0.019
13 | RPF1 (UniProt Q9H9Y2) | inactive: 0.017 | inactive: -0.403 | inactive: 0.014 |  |  |  |  | inactive: -0.038 | inactive: 0 |  |  |  |  |  |  | inactive: 0.119 |  | inactive: 0.087 | inactive: -0.019 | 
14 | RIF1 (UniProt Q5UIP0) | inactive: -0.018 | inactive: 0.029 | inactive: -0.065 | inactive: -0.013 | inactive: 0.006 | inactive: -0.046 | inactive: -0.01 | inactive: -0.031 | inactive: -0.036 | inactive: 0.068 | inactive: -0.011 | inactive: 0.019 | inactive: 0.017 | inactive: -0.003 | inactive: -0.023 | inactive: -0.059 | inactive: -0.02 | inactive: 0.025 | inactive: 0.037 | inactive: 0.027
15 | RNPS1 (UniProt Q15287) | inactive: 0.025 | inactive: 0.044 | active: 0.254 | inactive: -0.02 | inactive: 0.038 | inactive: 0 | inactive: 0.042 | inactive: -0.057 | inactive: -0.009 | inactive: -0.001 | inactive: 0.025 | inactive: -0.047 | inactive: 0.044 | inactive: -0.035 | inactive: 0.034 | active: 0.239 | inactive: -0.056 | inactive: 0.029 | inactive: 0.018 | inactive: -0.033
16 | RIOK3 (UniProt O14730) | inactive: 0.026 | inactive: -0.032 | inactive: -0.031 | inactive: 0.021 | inactive: -0.007 | inactive: -0.009 | inactive: -0.008 | inactive: 0.036 | inactive: -0.021 | inactive: 0.008 | inactive: 0.017 | inactive: -0.027 | inactive: -0.05 | inactive: -0.076 | inactive: 0.002 | inactive: -0.063 | inactive: 0.008 | inactive: 0.01 | inactive: 0.009 | inactive: 0.014
17 | RILPL2 (UniProt Q969X0) | inactive: 0.048 | inactive: 0.027 | inactive: -0.072 | inactive: -0.133 |  | inactive: 0.021 |  | inactive: 0.124 | inactive: -0.129 | inactive: 0.089 | inactive: -0.16 | inactive: 0.007 |  | inactive: 0.159 |  | inactive: -0.058 | inactive: -0.06 | inactive: 0.141 | inactive: -0.009 | inactive: 0.013

In a second layout: entries from further up
Row,Target,log2 fold change (lapatinib),log2 fold change (pictilisib),log2 fold change (crizotinib),log2 fold change [1],log2 fold change (duvelisib),log2 fold change (gandotinib),log2 fold change (tozasertib),log2 fold change (doramapimod),log2 fold change (bafetinib),log2 fold change [2],log2 fold change (nilotinib),log2 fold change [3],log2 fold change (dasatinib),log2 fold change [4],log2 fold change [5],log2 fold change (quisinostat),log2 fold change (tipifarnib),log2 fold change [6],log2 fold change [7],log2 fold change [8]
1,RIDA (UniProt P52758),inactive: 0.073,inactive: -0.029,inactive: 0.06,inactive: 0.028,inactive: 0.017,inactive: 0,inactive: -0.008,inactive: -0.034,inactive: 0.087,inactive: -0.029,inactive: 0.03,inactive: 0.029,inactive: 0.025,inactive: 0.03,inactive: 0.018,inactive: 0.093,inactive: 0.026,inactive: -0.028,inactive: 0.036,inactive: 0.012
9,RNF121 (UniProt Q9H920),inactive: -0.033,inactive: -0.092,inactive: -0.069,inactive: -0.137,inactive: -0.013,inactive: 0.124,,inactive: 0.03,inactive: -0.014,inactive: 0.014,inactive: -0.009,inactive: -0.055,inactive: 0,inactive: -0.078,inactive: -0.086,inactive: -0.049,inactive: 0.13,inactive: 0.016,inactive: 0.12,inactive: 0.028
10,RPL17 isoform 3 (UniProt P18621),inactive: 0.027,inactive: 0.049,inactive: 0.006,inactive: 0.072,inactive: -0.004,inactive: -0.052,inactive: -0.029,inactive: -0.053,inactive: 0.081,inactive: -0.065,inactive: 0.053,inactive: 0,inactive: 0.011,inactive: -0.035,inactive: -0.019,inactive: 0.032,inactive: 0.01,inactive: 0,inactive: 0,inactive: 0.009
